These are literature values, as cited in paper PMC12294558, “New 1,2,4-Triazole Derivatives with a N-Mannich Base Structure Based on a 4,6-Dimethylpyridine Scaffold as Anticancer Agents: Design, Synthesis, Biological Evaluation, and Molecular Modeling” (International Journal of Molecular Sciences, 2025).

This series deals with HepG2 cells. Further details: method as in PMID 36181443. The note with it: cited from earlier work.

Each structure is given as a SMILES string.

The IC50 is the concentration that gives 50% inhibition. `COc1cccc2c1C(=O)c1c(O)c3c(c(O)c1C2=O)C[C@@](O)(C(=O)CO)C[C@@H]3O[C@H]1C[C@H](N)[C@H](O)[C@H](C)O1` [Doxorubicin, doxorubicin]: the IC50 was 4.45 µM.
